{"source": "PubChem BioAssay AID1259424 (University of Nebraska Medical Center, 2018)", "aim": "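Find knockdowns that reproduce the expression shifts seen after KSR1 loss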 (primary screen)", "system": "human HCT116 colon cancer cells", "knock-down reagent": "siRNA pool against human genes, 50 nM", "detection": "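Six signature mRNAs by branched-DNA multiplex assay, scaled to two housekeeping genes and non-targeting median, log2; matched to mean KSR1 knockdown profile by Pearson correlation and euclidean distance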", "direction": "mean correlation with KSR1 profile: higher = expression change more like KSR1 knockdown; mean distance from KSR1 profile: higher = expression change less like KSR1 knockdown", "note": "Shown is one part, drawn at random, of about 14,000 reagents. 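Higher correlation or smaller distance means closer resemblance to KSR1 loss; control wells, including KSR1 knockdowns, recur on many plates.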 Further read-outs or replicates are left out here. Not given: the time to read-out."}
{"gene": "RLN2", "mean correlation with KSR1 profile": 0.442, "mean distance from KSR1 profile": 2.04}
{"gene": "PPP1R2C", "mean correlation with KSR1 profile": -0.576, "mean distance from KSR1 profile": 2.14}
{"gene": "MRPL2", "mean correlation with KSR1 profile": -0.197, "mean distance from KSR1 profile": 4.38}
{"gene": "TMCO1", "mean correlation with KSR1 profile": -0.617, "mean distance from KSR1 profile": 1.75}
{"gene": "RTN4IP1", "mean correlation with KSR1 profile": 0.505, "mean distance from KSR1 profile": 3.75}
{"gene": "ZCWPW1", "mean correlation with KSR1 profile": 0.228, "mean distance from KSR1 profile": 1.92}
{"gene": "ASAH2", "mean correlation with KSR1 profile": -0.309, "mean distance from KSR1 profile": 5.83}
{"gene": "NLRP3", "mean correlation with KSR1 profile": -0.347, "mean distance from KSR1 profile": 1.25}
{"gene": "CLOCK", "mean correlation with KSR1 profile": -0.355, "mean distance from KSR1 profile": 2.46}
{"gene": "ROBO4", "mean correlation with KSR1 profile": -0.195, "mean distance from KSR1 profile": 1.09}
{"gene": "ALPP", "mean correlation with KSR1 profile": -0.383, "mean distance from KSR1 profile": 2.82}
{"gene": "PHC3", "mean correlation with KSR1 profile": 0.477, "mean distance from KSR1 profile": 3.16}
{"gene": "DNAH11", "mean correlation with KSR1 profile": 0.22, "mean distance from KSR1 profile": 1.68}

3 entries from above in another layout.
{"gene":"TMCO1","mean correlation with KSR1 profile":-0.617,"mean distance from KSR1 profile":1.75}
{"gene":"RTN4IP1","mean correlation with KSR1 profile":0.505,"mean distance from KSR1 profile":3.75}
{"gene":"ZCWPW1","mean correlation with KSR1 profile":0.228,"mean distance from KSR1 profile":1.92}

Next results follow:
{"gene": "SEC11A", "mean correlation with KSR1 profile": 0.286, "mean distance from KSR1 profile": 3.08}
{"gene": "MAP3K7CL", "mean correlation with KSR1 profile": -0.113, "mean distance from KSR1 profile": 3.51}
{"gene": "B4GALT4", "mean correlation with KSR1 profile": -0.929, "mean distance from KSR1 profile": 2.52}
{"gene": "AFM", "mean correlation with KSR1 profile": -0.171, "mean distance from KSR1 profile": 1.66}
{"gene": "ELOF1", "mean correlation with KSR1 profile": 0.508, "mean distance from KSR1 profile": 3.03}
{"gene": "IFNA1", "mean correlation with KSR1 profile": -0.138, "mean distance from KSR1 profile": 2.91}
{"gene": "SLC5A7", "mean correlation with KSR1 profile": 0.497, "mean distance from KSR1 profile": 3.17}
{"gene": "RNF7", "mean correlation with KSR1 profile": 0.511, "mean distance from KSR1 profile": 0.911}
{"gene": "SYCP1", "mean correlation with KSR1 profile": 0.728, "mean distance from KSR1 profile": 0.715}
{"gene": "PTK7", "mean correlation with KSR1 profile": 0.00913, "mean distance from KSR1 profile": 3.01}
{"gene": "IL11RA", "mean correlation with KSR1 profile": 0.116, "mean distance from KSR1 profile": 1.34}
{"gene": "CTTNBP2", "mean correlation with KSR1 profile": 0.478, "mean distance from KSR1 profile": 1.32}
{"gene": "ASCL3", "mean correlation with KSR1 profile": -0.111, "mean distance from KSR1 profile": 3.18}
{"gene": "CD68", "mean correlation with KSR1 profile": -0.772, "mean distance from KSR1 profile": 2.24}
{"gene": "PPP4R2", "mean correlation with KSR1 profile": 0.413, "mean distance from KSR1 profile": 1.31}
